Each structure is given as a SMILES string. Where a name gives a salt, the structure may show the parent alone. Some of the results follow. Most values lie at the level of the controls, where differences are scatter.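 Reh is a human leukemia cell line; the read-out is the median γH2AX antibody signal in S-phase cells by flow cytometry, with the score counting standard deviations from the median difference of each paired set of plates. Scores above 2.5 were called candidate hits, while scores below -2 mark compounds that lowered the MK1775-induced damage.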

From the supplement of paper PMC5355238 come the findings set out here.

This assay concerns Reh. The assay can be described thus: Z' of S-phase gammaH2AX difference (drug + MK1775 minus drug alone) (Z-score); higher = stronger synergistic S-phase DNA damage with MK1775. The conditions noted are these: MK1775 concentration 400 nM; first compound 10 µM; 4 h.
Regarding `NC(N)=Nc1nc(CSCC/C(N)=N/S(N)(=O)=O)cs1` [Famotidine] + C=CCn1c(=O)c2cnc(Nc3ccc(N4CCN(C)CC4)cc3)nc2n1-c1cccc(C(C)(C)O)n1 [MK1775], the “Z' of S-phase gammaH2AX difference (Z-score)” value was inactive: 0.857.
`COc1ccc(-c2ccc3c(N4CCOCC4)nc(N4C[C@@H](C)O[C@@H](C)C4)nc3n2)cc1CO` + C=CCn1c(=O)c2cnc(Nc3ccc(N4CCN(C)CC4)cc3)nc2n1-c1cccc(C(C)(C)O)n1 [MK1775]: the “Z' of S-phase gammaH2AX difference (Z-score)” value is inactive: -0.307.
As for `Nc1ccc(CCNc2ncnc3c2ncn3C2OC(CO)C(O)C2O)cc1` (configuration not stated) [N6-2-(4-Aminophenyl)ethyladenosine] + C=CCn1c(=O)c2cnc(Nc3ccc(N4CCN(C)CC4)cc3)nc2n1-c1cccc(C(C)(C)O)n1 [MK1775], the “Z' of S-phase gammaH2AX difference (Z-score)” value was inactive: 0.364.
Consider `OCC1OC(n2cnc3c(NCCc4ccccc4)ncnc32)C(O)C1O` (configuration not stated) [N6-2-Phenylethyladenosine] + C=CCn1c(=O)c2cnc(Nc3ccc(N4CCN(C)CC4)cc3)nc2n1-c1cccc(C(C)(C)O)n1 [MK1775], for which the “Z' of S-phase gammaH2AX difference (Z-score)” value was inactive: 0.815.
For the molecule `OC[C@H]1O[C@@H](n2cnc3c(Nc4ccccc4)ncnc32)[C@H](O)[C@@H]1O` [N6-Phenyladenosine] + C=CCn1c(=O)c2cnc(Nc3ccc(N4CCN(C)CC4)cc3)nc2n1-c1cccc(C(C)(C)O)n1 [MK1775], the “Z' of S-phase gammaH2AX difference (Z-score)” value was inactive: -0.102.
Then `OC(CN1CCN(c2cccc(Cl)c2)CC1)C(c1ccccc1)c1ccccc1` (configuration not stated) + C=CCn1c(=O)c2cnc(Nc3ccc(N4CCN(C)CC4)cc3)nc2n1-c1cccc(C(C)(C)O)n1 [MK1775], with inactive: 0.411; and `C#CCn1c(=O)c2c(ncn2C)n(C)c1=O` [3,7-Dimethyl-I-propargylxanthine] + C=CCn1c(=O)c2cnc(Nc3ccc(N4CCN(C)CC4)cc3)nc2n1-c1cccc(C(C)(C)O)n1 [MK1775], with inactive: 0.94; and `Oc1cccc(-c2nc(N3CCOCC3)c3oc4ncccc4c3n2)c1` + C=CCn1c(=O)c2cnc(Nc3ccc(N4CCN(C)CC4)cc3)nc2n1-c1cccc(C(C)(C)O)n1 [MK1775], with inactive: -0.719.
On to `N#C/C(=C\c1ccc(O)c(O)c1)C(=O)NCc1ccccc1` [Tyrphostin AG 490] + C=CCn1c(=O)c2cnc(Nc3ccc(N4CCN(C)CC4)cc3)nc2n1-c1cccc(C(C)(C)O)n1 [MK1775], for which the “Z' of S-phase gammaH2AX difference (Z-score)” value is inactive: -0.483.
`CCN(CC)CCCCNc1ncc2cc(-c3cc(OC)cc(OC)c3)c(NC(=O)NC(C)(C)C)nc2n1` + C=CCn1c(=O)c2cnc(Nc3ccc(N4CCN(C)CC4)cc3)nc2n1-c1cccc(C(C)(C)O)n1 [MK1775]: the “Z' of S-phase gammaH2AX difference (Z-score)” value is inactive: -0.382.
With `CN(C)CCC(c1ccc(Br)cc1)c1ccccn1` (single isomer, unassigned; (+)) [(+)-Brompheniramine maleate] + C=CCn1c(=O)c2cnc(Nc3ccc(N4CCN(C)CC4)cc3)nc2n1-c1cccc(C(C)(C)O)n1 [MK1775], the “Z' of S-phase gammaH2AX difference (Z-score)” value is inactive: -0.15.
As to `CC(C)C[C@H](NC(=O)CNC(=O)c1cc(Cl)ccc1Cl)B1OC(=O)C(CC(=O)O)(CC(=O)O)O1` + C=CCn1c(=O)c2cnc(Nc3ccc(N4CCN(C)CC4)cc3)nc2n1-c1cccc(C(C)(C)O)n1 [MK1775], the “Z' of S-phase gammaH2AX difference (Z-score)” value was inactive: -0.753.
With `CC(N)(Cc1ccc(O)c(O)c1)C(=O)O` (racemic) [(?)-3-(3,4-dihydroxyphenyl)-2-methyl-DL-alanine] + C=CCn1c(=O)c2cnc(Nc3ccc(N4CCN(C)CC4)cc3)nc2n1-c1cccc(C(C)(C)O)n1 [MK1775], the “Z' of S-phase gammaH2AX difference (Z-score)” value is inactive: -0.417.
Turning to `NC(=O)c1cccc(N)c1` [3-aminobenzamide] + C=CCn1c(=O)c2cnc(Nc3ccc(N4CCN(C)CC4)cc3)nc2n1-c1cccc(C(C)(C)O)n1 [MK1775], the “Z' of S-phase gammaH2AX difference (Z-score)” value is inactive: -0.244.
With `Cc1ccc(-n2nc(C(C)(C)C)cc2NC(=O)Nc2ccc(OCCN3CCOCC3)c3ccccc23)cc1` [BIRB 796 (Doramapimod)] + C=CCn1c(=O)c2cnc(Nc3ccc(N4CCN(C)CC4)cc3)nc2n1-c1cccc(C(C)(C)O)n1 [MK1775], the “Z' of S-phase gammaH2AX difference (Z-score)” value was inactive: 0.339.
Regarding `CNC(=O)c1ccc(C)c(-n2c(C)cc(OCc3ccc(F)cc3F)c(Br)c2=O)c1` + C=CCn1c(=O)c2cnc(Nc3ccc(N4CCN(C)CC4)cc3)nc2n1-c1cccc(C(C)(C)O)n1 [MK1775], the “Z' of S-phase gammaH2AX difference (Z-score)” value is inactive: 0.177.
As to `CCCN(CCc1ccccc1)C1CCc2c(O)cccc2C1` (configuration not stated) [(?)-PPHT hydrochloride] + C=CCn1c(=O)c2cnc(Nc3ccc(N4CCN(C)CC4)cc3)nc2n1-c1cccc(C(C)(C)O)n1 [MK1775], the “Z' of S-phase gammaH2AX difference (Z-score)” value was inactive: -0.136.
As to `CNC(=N)NCCC[C@H](N)C(=O)O` [NG-Monomethyl-L-arginine acetate] + C=CCn1c(=O)c2cnc(Nc3ccc(N4CCN(C)CC4)cc3)nc2n1-c1cccc(C(C)(C)O)n1 [MK1775], the “Z' of S-phase gammaH2AX difference (Z-score)” value was inactive: -0.33.
In the case of `O=C(O)C1=CCCN(CCON=C(c2ccccc2)c2ccccc2)C1` [NO-711 hydrochloride] + C=CCn1c(=O)c2cnc(Nc3ccc(N4CCN(C)CC4)cc3)nc2n1-c1cccc(C(C)(C)O)n1 [MK1775], the “Z' of S-phase gammaH2AX difference (Z-score)” value was inactive: -0.776.
As to `CC(C)(C)NCC(O)COc1cccc2[nH]c(=O)[nH]c12` (configuration not stated) + C=CCn1c(=O)c2cnc(Nc3ccc(N4CCN(C)CC4)cc3)nc2n1-c1cccc(C(C)(C)O)n1 [MK1775], the “Z' of S-phase gammaH2AX difference (Z-score)” value was inactive: -0.184.
Then `O=C(c1ccccc1)c1ccc2n1CCC2C(=O)O` (configuration not stated) [Ketorolac tris salt] + C=CCn1c(=O)c2cnc(Nc3ccc(N4CCN(C)CC4)cc3)nc2n1-c1cccc(C(C)(C)O)n1 [MK1775], with inactive: -1.17.
Take `CNC(=O)[C@H]1O[C@@H](n2cnc3c(NCc4cccc(I)c4)nc(Cl)nc32)[C@H](O)[C@@H]1O` [Chloro-IB-MECA] + C=CCn1c(=O)c2cnc(Nc3ccc(N4CCN(C)CC4)cc3)nc2n1-c1cccc(C(C)(C)O)n1 [MK1775]: the “Z' of S-phase gammaH2AX difference (Z-score)” value was inactive: -0.0607.
Regarding `CCN(CC)CCCC(C)Nc1nc(C)cc(Nc2ccc3nc(C)cc(N)c3c2)n1` (configuration not stated) + C=CCn1c(=O)c2cnc(Nc3ccc(N4CCN(C)CC4)cc3)nc2n1-c1cccc(C(C)(C)O)n1 [MK1775], the “Z' of S-phase gammaH2AX difference (Z-score)” value is inactive: 0.768.
Turning to `CN1Cc2c(N)cccc2C(c2ccccc2)C1` (configuration not stated) [Nomifensine maleate] + C=CCn1c(=O)c2cnc(Nc3ccc(N4CCN(C)CC4)cc3)nc2n1-c1cccc(C(C)(C)O)n1 [MK1775], the “Z' of S-phase gammaH2AX difference (Z-score)” value was inactive: -0.335.
Turning to `CN(C)C/C=C/C(=O)Nc1cc2c(Nc3ccc(F)c(Cl)c3)ncnc2cc1O[C@H]1CCOC1` [Afatinib (BIBW2992)] + C=CCn1c(=O)c2cnc(Nc3ccc(N4CCN(C)CC4)cc3)nc2n1-c1cccc(C(C)(C)O)n1 [MK1775], the “Z' of S-phase gammaH2AX difference (Z-score)” value was inactive: 1.26.
For the molecule `O=C1NC(=O)C(c2ccccc2)(c2ccccc2)N1` [5,5-Diphenylhydantoin] + C=CCn1c(=O)c2cnc(Nc3ccc(N4CCN(C)CC4)cc3)nc2n1-c1cccc(C(C)(C)O)n1 [MK1775], the “Z' of S-phase gammaH2AX difference (Z-score)” value was inactive: -0.814.
Turning to `COc1cccc(C(=O)NCCN2CCN(c3ccc(Cl)cc3)CC2)c1` + C=CCn1c(=O)c2cnc(Nc3ccc(N4CCN(C)CC4)cc3)nc2n1-c1cccc(C(C)(C)O)n1 [MK1775], the “Z' of S-phase gammaH2AX difference (Z-score)” value is inactive: -0.184.
Then `C[C@@H]1C(=O)NC2=Nc3cccc(Cl)c3CN21` [Quazinone] + C=CCn1c(=O)c2cnc(Nc3ccc(N4CCN(C)CC4)cc3)nc2n1-c1cccc(C(C)(C)O)n1 [MK1775], with inactive: -0.311; and `CCCCCCCCCCCCC/C=C/[C@@H](O)[C@@H](N)CO` [Sphingosine] + C=CCn1c(=O)c2cnc(Nc3ccc(N4CCN(C)CC4)cc3)nc2n1-c1cccc(C(C)(C)O)n1 [MK1775], with inactive: -0.162.
The figure for `Cc1cc(N)c2ccccc2[n+]1CCCCCCCCCC[n+]1c(C)cc(N)c2ccccc21` [Dequalinium dichloride] + C=CCn1c(=O)c2cnc(Nc3ccc(N4CCN(C)CC4)cc3)nc2n1-c1cccc(C(C)(C)O)n1 [MK1775] is inactive: 1.32; for `Nc1c2c(nc3ccccc13)CCCC2O` (configuration not stated) [Hydroxytacrine maleate] + C=CCn1c(=O)c2cnc(Nc3ccc(N4CCN(C)CC4)cc3)nc2n1-c1cccc(C(C)(C)O)n1 [MK1775] it is inactive: -0.172.
Take `N#CC(C#N)=C(N)/C(C#N)=C/c1cc(O)c(O)c(O)c1` [Tyrphostin 51] + C=CCn1c(=O)c2cnc(Nc3ccc(N4CCN(C)CC4)cc3)nc2n1-c1cccc(C(C)(C)O)n1 [MK1775]: the “Z' of S-phase gammaH2AX difference (Z-score)” value is inactive: 0.584.
Then `CCN(CC)CCCCCCCCOC(=O)c1cc(OC)c(OC)c(OC)c1` [TMB-8 hydrochloride] + C=CCn1c(=O)c2cnc(Nc3ccc(N4CCN(C)CC4)cc3)nc2n1-c1cccc(C(C)(C)O)n1 [MK1775], with inactive: 0.431; and `NCCNC(=O)c1ccc(Cl)cc1` [Ro 16-6491 hydrochloride] + C=CCn1c(=O)c2cnc(Nc3ccc(N4CCN(C)CC4)cc3)nc2n1-c1cccc(C(C)(C)O)n1 [MK1775], with inactive: 0.371.
Then `Cn1ccc2cc3c(cc21)CCN3C(=O)Nc1cccnc1` + C=CCn1c(=O)c2cnc(Nc3ccc(N4CCN(C)CC4)cc3)nc2n1-c1cccc(C(C)(C)O)n1 [MK1775], with inactive: -0.841.
As to `O=C(O)CP(=O)(O)O` [Phosphonoacetic acid] + C=CCn1c(=O)c2cnc(Nc3ccc(N4CCN(C)CC4)cc3)nc2n1-c1cccc(C(C)(C)O)n1 [MK1775], the “Z' of S-phase gammaH2AX difference (Z-score)” value is inactive: -0.354.
For `Nc1ccc2c3c(cccc13)C(=O)NC2=O` [4-Amino-1,8-naphthalimide] + C=CCn1c(=O)c2cnc(Nc3ccc(N4CCN(C)CC4)cc3)nc2n1-c1cccc(C(C)(C)O)n1 [MK1775], the “Z' of S-phase gammaH2AX difference (Z-score)” value was inactive: 0.468.
